Data on one molecule can be found in article PMC8201222.

Sequences of proteins named here, by UniProt entry; tags and fusion partners are left off.
UniProt P19338: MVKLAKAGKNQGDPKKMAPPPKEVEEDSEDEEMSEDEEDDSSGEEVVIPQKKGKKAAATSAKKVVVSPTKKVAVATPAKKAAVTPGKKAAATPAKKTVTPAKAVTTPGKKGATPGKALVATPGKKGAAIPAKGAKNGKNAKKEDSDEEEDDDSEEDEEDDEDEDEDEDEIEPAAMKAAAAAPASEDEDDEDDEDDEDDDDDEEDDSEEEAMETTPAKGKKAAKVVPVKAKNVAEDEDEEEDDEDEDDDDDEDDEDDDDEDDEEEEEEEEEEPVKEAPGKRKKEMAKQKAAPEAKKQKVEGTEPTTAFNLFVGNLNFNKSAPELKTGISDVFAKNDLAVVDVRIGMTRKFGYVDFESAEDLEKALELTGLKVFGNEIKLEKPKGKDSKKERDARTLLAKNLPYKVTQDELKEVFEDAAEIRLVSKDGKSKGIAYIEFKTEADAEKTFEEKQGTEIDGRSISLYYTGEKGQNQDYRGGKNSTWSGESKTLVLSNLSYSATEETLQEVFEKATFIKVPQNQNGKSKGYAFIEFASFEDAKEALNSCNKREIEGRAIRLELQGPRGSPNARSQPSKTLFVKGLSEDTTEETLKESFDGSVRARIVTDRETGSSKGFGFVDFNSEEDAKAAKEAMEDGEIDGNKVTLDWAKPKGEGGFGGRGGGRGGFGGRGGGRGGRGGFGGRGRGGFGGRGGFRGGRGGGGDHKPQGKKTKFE

No constants are given. Whether binding was seen depends on the method and setting. In cells and extracts the contact can be indirect. Some entries that bind do so weakly or less than the wild type.

For this test, the target named is nucleolin (NCL), endogenous (human (endogenous in 293T, HeLa, BT549, MCF-7, MDA-MB-231)) (UniProt P19338). In words: co-IP; endogenous NCL immunoprecipitated with anti-NCL antibodies from lysates of 293T, BT549, MCF-7 and MDA-MB-231 cells, 4 °C overnight; co-immunoprecipitated endogenous AEG-1 detected by western blot. In general terms: In western blotting, separated proteins are transferred to a membrane and probed.

B1: Astrocyte elevated gene-1 (AEG-1), endogenous (protein, UniProt Q86UE4 1-582)
chain: MAARSWQDELAQQAEEGSARLREMLSVGLGFLRTELGLDLGLEPKRYPGWVILVGTGALGLLLLFLLGYGWAAACAGARKKRRSPPRKREEAAAVPAAAPDDLALLKNLRSEEQKKKNRKKLSEKPKPNGRTVEVAEGEAVRTPQSVTAKQPPEIDKKNEKSKKNKKKSKSDAKAVQNSSRHDGKEVDEGAWETKISHREKRQQRKRDKVLTDSGSLDSTIPGIENTITVTTEQLTTASFPVGSKKNKGDSHLNVQVSNFKSGKGDSTLQVSSGLNENLTVNGGGWNEKSVKLSSQISAGEEKWNSVSPASAGKRKTEPSAWSQDTGDANTNGKDWGRSWSDRSIFSGIGSTAEPVSQSTTSDYQWDVSRNQPYIDDEWSGLNGLSSADPNSDWNAPAEEWGNWVDEERASLLKSQEPIPDDQKVSDDDKEKGEGALPTGKSKKKKKKKKKQGEDNSTAQDTEELEKEIREDLPVNTSKTRPKQEKAFSLKTISTSDPAEVLVKNSQPIKTLPPATSTEPSVILSKSDSDKSSSQVPPILQETDKSKSNTKQNSVPPSQTKSETSWESPKQIKKKKKARRET
Consider B1, for which the binding result was “binds”.
